PubChem BioAssay AID1224826 – NIAID – 2016
In all, the deposit lists about 17,000 reagents; below is an unselected part. About 1,110 of all reagents (6.6%) count as active. 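Active means lowered or raised reporter signal; replicate intensities are raw and not normalised per plate.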 Some reagents were tested in more than one well and are listed for each. Not all columns of the deposit are shown. Reagent sequences are not shown.

- Purpose: 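Knock-downs that raise or lower Tnf reporter signal after endotoxin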 (primary screen)
- System: RAW264.7 G9 macrophages from mouse bearing reporters for p65 (GFP) and the Tnf promoter (mCherry)
- Knock-down reagent: siRNA pool against mouse genes, 100 nM
- Time to read-out: 16 h of LPS stimulation, after 2 days of siRNA transfection
- Treatment: bacterial lipopolysaccharide (Salmonella minnesota R595), 10 ng/ml
- Read-out: 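Nuclear mCherry signal of the Tnf promoter reporter measured by imaging after background removal, scaled to each plate median and turned into robust z-scores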
- Direction: Tnf reporter robust z-score: higher = stronger Tnf promoter reporter signal after LPS
- Hit rule: 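a well counts as active at a score of -1.3 or below (Tlr4 knock-down control median) or above 3 (raised signal); controls and wells holding fewer than 50 cells are excluded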
- Calls: active = Tnf reporter clearly lowered or raised; inactive = no clear change in Tnf reporter

Scai (suppressor of cancer cell invasion) scored Tnf reporter robust z-score -0.12; fewer than 50 cells in well enough cells in well; inactive.
For Pik3r3 (phosphoinositide-3-kinase regulatory subunit 3) the deposit lists Tnf reporter robust z-score 0.67; fewer than 50 cells in well enough cells in well; inactive.
Rita1 (RBPJ interacting and tubulin associated 1) gave Tnf reporter robust z-score 1.07; fewer than 50 cells in well enough cells in well; inactive.
Depletion of Slc4a1 came out at: Tnf reporter robust z-score -1.5; fewer than 50 cells in well enough cells in well; active.
Depletion of Spry1 (sprouty RTK signaling antagonist 1) resulted in: Tnf reporter robust z-score -0.7; fewer than 50 cells in well enough cells in well; inactive.
For Sall4 (spalt like transcription factor 4), the values are Tnf reporter robust z-score 0.49; fewer than 50 cells in well enough cells in well; inactive.
For Ltv1 (LTV1 ribosome biogenesis factor) the deposit lists Tnf reporter robust z-score 1.18; fewer than 50 cells in well enough cells in well; inactive.

Part of the list above in another layout:
| target | Tnf reporter robust z-score | fewer than 50 cells in well | call |
| --- | --- | --- | --- |
| Spry1 (sprouty RTK signaling antagonist 1) | -0.7 | enough cells in well | inactive |
| Sall4 (spalt like transcription factor 4) | 0.49 | enough cells in well | inactive |
| Ltv1 (LTV1 ribosome biogenesis factor) | 1.18 | enough cells in well | inactive |

Additional results:
Depletion of Il10rb (interleukin 10 receptor, beta) came out at: Tnf reporter robust z-score 0.06; fewer than 50 cells in well enough cells in well; inactive.
Against Csf2ra the deposit lists Tnf reporter robust z-score -0.26; fewer than 50 cells in well enough cells in well; inactive.
Syt12 (synaptotagmin XII) scored Tnf reporter robust z-score -0.02; fewer than 50 cells in well enough cells in well; inactive.
For Bnc1 (basonuclin zinc finger protein 1), the entry reads Tnf reporter robust z-score -0.45; fewer than 50 cells in well enough cells in well; inactive.
Against Itpka (inositol 1,4,5-trisphosphate 3-kinase A) the deposit lists Tnf reporter robust z-score 0.42; fewer than 50 cells in well enough cells in well; inactive.
With knock-down of Espn (espin) the results were Tnf reporter robust z-score -1.06; fewer than 50 cells in well enough cells in well; inactive.
Knock-down of Nedd8 resulted in: Tnf reporter robust z-score -1.03; fewer than 50 cells in well enough cells in well; inactive.
Against Bhlhe40 (basic helix-loop-helix family, member e40), the entry reads Tnf reporter robust z-score -1.1; fewer than 50 cells in well enough cells in well; inactive.
Knock-down of Aldh1l2 (aldehyde dehydrogenase 1 family, member L2) gave: Tnf reporter robust z-score -1.24; fewer than 50 cells in well enough cells in well; inactive.
Knock-down of Or56a5 (olfactory receptor family 56 subfamily A member 5) resulted in: Tnf reporter robust z-score 1.06; fewer than 50 cells in well enough cells in well; inactive.
Against Dcun1d5 (defective in cullin neddylation 1 domain containing 5), the entry reads Tnf reporter robust z-score 1.92; fewer than 50 cells in well enough cells in well; inactive.
Zfp952 (zinc finger protein 952) showed Tnf reporter robust z-score -0.71; fewer than 50 cells in well enough cells in well; inactive.
After knock-down of Ahsp (alpha hemoglobin stabilizing protein) the results were Tnf reporter robust z-score 2.11; fewer than 50 cells in well enough cells in well; inactive.
Grk5 (G protein-coupled receptor kinase 5) showed Tnf reporter robust z-score -1.27; fewer than 50 cells in well enough cells in well; inactive.
Grk5 (G protein-coupled receptor kinase 5) showed Tnf reporter robust z-score -1.46; fewer than 50 cells in well enough cells in well; active.
